{"sequences": {"note": "Protein sequences, listed by entry. Tags and fused reporters are not part of them.", "UniProt Q61818": "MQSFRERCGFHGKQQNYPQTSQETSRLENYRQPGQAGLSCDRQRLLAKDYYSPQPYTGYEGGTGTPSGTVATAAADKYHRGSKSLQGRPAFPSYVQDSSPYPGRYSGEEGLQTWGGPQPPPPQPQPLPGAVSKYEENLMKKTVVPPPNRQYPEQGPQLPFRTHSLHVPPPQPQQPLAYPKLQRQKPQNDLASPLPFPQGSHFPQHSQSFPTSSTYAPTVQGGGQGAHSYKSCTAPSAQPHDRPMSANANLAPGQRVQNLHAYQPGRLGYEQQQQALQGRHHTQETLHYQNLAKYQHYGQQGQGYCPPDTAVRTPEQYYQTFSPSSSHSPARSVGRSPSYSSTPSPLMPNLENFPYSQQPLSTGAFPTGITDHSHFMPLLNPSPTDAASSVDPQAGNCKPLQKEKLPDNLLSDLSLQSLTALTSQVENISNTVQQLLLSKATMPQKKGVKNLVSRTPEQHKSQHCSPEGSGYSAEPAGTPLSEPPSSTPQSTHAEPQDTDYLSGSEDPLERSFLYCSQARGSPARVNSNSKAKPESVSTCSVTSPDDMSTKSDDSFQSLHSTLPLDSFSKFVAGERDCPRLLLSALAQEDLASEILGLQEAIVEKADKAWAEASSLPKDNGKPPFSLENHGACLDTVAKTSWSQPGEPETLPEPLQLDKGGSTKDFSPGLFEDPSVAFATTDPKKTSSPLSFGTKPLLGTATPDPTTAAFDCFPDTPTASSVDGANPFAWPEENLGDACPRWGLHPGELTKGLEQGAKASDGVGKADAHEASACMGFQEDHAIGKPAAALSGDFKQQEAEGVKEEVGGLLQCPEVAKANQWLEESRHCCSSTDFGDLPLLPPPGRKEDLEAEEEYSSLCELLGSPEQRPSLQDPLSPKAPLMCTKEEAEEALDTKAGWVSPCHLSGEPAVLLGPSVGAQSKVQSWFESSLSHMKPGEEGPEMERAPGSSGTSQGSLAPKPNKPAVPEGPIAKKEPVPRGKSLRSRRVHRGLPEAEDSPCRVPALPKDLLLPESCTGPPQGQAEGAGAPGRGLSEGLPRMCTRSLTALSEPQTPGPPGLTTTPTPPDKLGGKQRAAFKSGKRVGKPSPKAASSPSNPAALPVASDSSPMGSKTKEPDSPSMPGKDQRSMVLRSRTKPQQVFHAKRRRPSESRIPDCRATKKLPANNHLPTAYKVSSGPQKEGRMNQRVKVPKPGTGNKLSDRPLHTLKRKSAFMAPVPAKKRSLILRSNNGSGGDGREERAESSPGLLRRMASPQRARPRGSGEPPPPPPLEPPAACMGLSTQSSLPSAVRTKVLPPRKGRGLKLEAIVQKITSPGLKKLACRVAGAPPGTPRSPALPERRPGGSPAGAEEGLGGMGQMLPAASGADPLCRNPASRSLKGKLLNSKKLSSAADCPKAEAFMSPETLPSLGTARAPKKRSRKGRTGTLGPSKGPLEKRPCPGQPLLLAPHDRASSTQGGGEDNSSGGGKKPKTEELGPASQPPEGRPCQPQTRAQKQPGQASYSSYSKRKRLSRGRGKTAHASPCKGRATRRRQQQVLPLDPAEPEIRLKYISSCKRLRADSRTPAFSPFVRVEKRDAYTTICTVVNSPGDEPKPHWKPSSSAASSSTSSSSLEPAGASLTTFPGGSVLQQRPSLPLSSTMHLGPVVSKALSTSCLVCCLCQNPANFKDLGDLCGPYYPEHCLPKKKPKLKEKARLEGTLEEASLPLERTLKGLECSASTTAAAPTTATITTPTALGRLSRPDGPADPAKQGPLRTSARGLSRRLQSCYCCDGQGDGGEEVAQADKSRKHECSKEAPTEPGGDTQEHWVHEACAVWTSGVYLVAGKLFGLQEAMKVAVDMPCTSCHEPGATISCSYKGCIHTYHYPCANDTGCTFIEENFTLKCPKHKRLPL"}, "source": "paper doi:10.1101/2021.10.12.462922", "about": "(bioRxiv, 2021)", "molecules": {"B1": {"name": "Phf14 (PHD finger protein 14), mouse, endogenous (protein, UniProt Q9D4H9 1-941)", "chain": "MDRSSKRRQVKPLAASLLEALDYDSSDDSDFKVGDASDSEGSGNGSEDPSKDSGEGSCSDSEENILEEELNEDIQVKEEQLKNSTEEIMPSDKQLIKMEKKEEEENGERPRKKKEKEKEKEKEREKDKEKATVSDSAAASAAGTTPATSPPAVTSPSVPTTTTTTTEEQVSEPKKWNLRRNRPLLDFVSMEELNAMDDYDSEDDNDWRPTVVKRKGRSASQKEGSDGDNEDDDDEGSGSEEDENDEGNDEDHSSPASEAGGKKKRSKVLSRNSADDEELTNDSLTLSQSKSNEDSLILEKSQNWSSQKMDHILICCVCLGDNSEDADEIIQCDNCGITVHEGCYGVDGESDSIMSSASENSTEPWFCDACKCGVSPSCELCPNQDGIFKETDAGRWVHIVCALYVPGVAFGDIDKLRPVTLTEMNYSKYGAKECSFCEDPRFARTGVCISCDAGMCRAYFHVTCAQKEGLLSEAAAEEDIADPFFAYCKQHADRLDRKWKRKNYLALQSYCKMSLQEREKQLSPEAQARINARLQQYRAKAELARSTRPQAWVPREKLPRPLTSSASAIRKLMRKAELMGISTDIFPVDNSDTSSSVDGRRKHKQPALTADFVNYYFERNMRMIQIQENMAEQKNIKDKLENEQEKLHVEYNKLCESLEELQNLNGKLRSEGQGIWALLGRITGQKLNVPAILRAPKERKPSKKEGGTQKTSALPTVLYSCGICKKNHDQHLLLLCDTCKLHYHLGCLDPPLTRMPRKTKNSYWQCSECDQAGSSDMEAEMAMETLPDGTKRSRRQIKEPVKFVPQDVPPEPKKIPIRNTRTRGRKRSFVPEEEKHEERVPRERRQRQSVLQKKPKAEDLRTECSTCKGTGDNENLVRCDECRLCYHFGCLDPPLKKSPKQTGYGWICQECDSSSSKEDENEAEKKNASQELSMEQKTPKK"}}, "key": {"[1]": {"biological_target": "T1, Phf14 (PHD finger protein 14), mouse, endogenous (mouse (endogenous in ESCs and NPCs)) (UniProt Q9D4H9)", "T1 sequence": "B1 chain", "test": "affinity purification with mass spectrometry"}, "[2]": {"biological_target": "Rai1-HA-3x-FLAG (endogenous Rai1 tagged at the C-terminus) (mouse (endogenous in ESC-derived cells)) (UniProt Q61818)", "test": "affinity purification with mass spectrometry"}}, "note": "These are yes or no findings as the source states them, for the method shown. Binding seen in cells or lysates may run through a third protein. Here binding means that the protein was enriched with, or labelled near, the bait; the list need not be complete.", "data": [{"molecule": "Rai1 (retinoic acid induced 1), mouse, endogenous (from UniProt Q61818 1-1889)", "values": [{"measurement": "binding", "setting": "[1]", "value": "binds"}]}, {"molecule": "B1", "values": [{"measurement": "binding", "setting": "[2]", "value": "binds"}]}]}
